Reference: PubChem BioAssay AID493014 (National Center for Advancing Translational Sciences (NCATS), 2011)
Among all 340,000 compounds or so, about 170 (0.05%) were called active. Inconclusive results, whose numbers are uncertain, are shown with a selection of clear calls. The call rests on the fitted dose curve; in most records, active means well fitted inhibition curve with a large enough effect in the signal ratio, with a control signal flat (not every such curve was filed as active); inconclusive means small, poorly fitted or top-dose-only effect, or effect the other way, or a change in a side signal; inactive means flat fitted curve, though single readings scatter; the % refers to the signal ratio. Where the call is inconclusive, the potency comes from a doubtful curve fit.

assay: qHTS Assay to Find Inhibitors of Chronic Active B-Cell Receptor Signaling; conditions: ABC-DLBCL IkBa-CBG/CBR reporter, luminescence ratio (green luciferase fused to IkBa over red control in TMD8 lymphoma cells), 4 h; activity change, negative = inhibition: at 46.1 µM (top of the series);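 on activity change, negative = inhibition: plate controls were basal doxycycline-induced cells for no effect and cells given 10 µM MG132 for full effect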
Outline: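 Concentration-response series (up to 46 uM) were applied to TMD8 dual-reporter cells for 4 h at 37C with doxycycline. Green/red ratio, after filter-overlap correction, defined %Activity; red signal alone was normalised to basal cells and zero luminescence.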
Potency means the concentration at half of the fitted maximal effect.

Row | SMILES | activity change, negative = inhibition | Potency
1 | CCOc1ccc(NC(=O)CSc2nnc(-c3ccccc3Cl)n2Cc2ccco2)cc1 | inconclusive: -13% | 
2 | Cc1nc2c(sc3nc4c(cc32)COC(C)(C)C4)c(=O)n1CC(=O)NCc1ccco1 | inconclusive: -25% | 
3 | CC(Sc1nnc2c(n1)[nH]c1ccccc12)C(=O)N(C)C1CCCCC1 (configuration not stated) | inconclusive: -21% | 
4 | O=C(c1cccs1)N1N=C(c2ccccc2)CC1c1ccccc1O (configuration not stated) | inconclusive: 13.4% | 
5 | O=C(CSc1nnc(CNC(=O)c2cccs2)o1)Nc1ccc(F)cc1F | inactive: -1.84% | 
6 | COc1cc(/C=C/C(=O)c2ccc([N+](=O)[O-])o2)ccc1O |  | inconclusive: 3.66 µM [falling, full curve]
7 | Cc1cc2nc(-c3ccc(SCC(=O)Nc4ccc5c(c4)OCCO5)nc3)[nH]c2cc1C | inconclusive: -1.8% | 
8 | COc1ccc(C(=O)CNc2ccc(C)cc2C)cc1 | inconclusive: -11.4% | 
9 | Cc1nn(C)c(Cl)c1NC(=O)OCc1ccc(F)cc1 | inconclusive: -0.502% | 
10 | COc1ccc(-c2nc(CN3CCN(Cc4cccc(Cl)c4)CC3)c(C)o2)cc1 | inconclusive: 1.77% | 
11 | O=C(c1ccccc1)c1ccc(OCC(O)CNCc2ccc(F)cc2)cc1 (configuration not stated) | inconclusive: -7.35% | 
12 | CCC(=O)NCCC(c1ccco1)c1ccccc1OC (configuration not stated) | inconclusive: 7.17% | 
13 | O=C(O)CCNS(=O)(=O)c1ccc2c(c1)Cc1ccccc1-2 | inconclusive: 195% | 
14 | O=C(NCc1cccc(Cl)c1)c1cc(COc2ccc3ncccc3c2)on1 | inactive: -23.1% | 
15 | O=C(CCS(=O)(=O)c1cccc2nonc12)NCCc1ccccc1 | inconclusive: 5.4% | 
16 | Clc1ccc(-c2cc(-c3ccccc3)on2)cc1 | inconclusive: 9.44% | 
17 | COc1ccccc1/C=C/C(=O)NC(=S)Nc1ccc(S(=O)(=O)N(C)c2ccccc2)cc1 |  | inconclusive: 8.91 µM [falling, partial curve]
18 | O=C(Oc1cccc2cccnc12)c1ccc(N2C(=O)C3C4CCC(C4)C3C2=O)cc1 (configuration not stated) |  | inconclusive: 25.9 µM [cytotoxic, single point]
19 | CNCc1ccccc1Sc1cccc2ccccc12 |  | inconclusive: 29.1 µM [falling, single point]
20 | Cc1cc(C)cc(OC(=O)CS(=O)c2ccc(C(F)(F)F)cc2[N+](=O)[O-])c1 (configuration not stated) |  | inconclusive: 2.91 µM [falling, partial curve, poor fit]
21 | Cc1cc(C)c(NC(=O)C2CC(=O)N(C3CCCC3)C2)c(C)c1 (configuration not stated) | inactive: -2.2% | 

Row | SMILES | activity change, negative = inhibition | Potency
22 | CC(=O)N1CCc2cc(N=NC3=C(O)CC(C)(C)CC3=O)ccc21 | inactive: -3.22% | 
23 | O=C(COc1ccc(F)cc1)Nc1cc(S(=O)(=O)N2CCCCC2)ccc1N1CCCCC1 |  | inconclusive: 3.66 µM [rising, partial curve, poor fit]
24 | CNC(=S)N(Cc1ccc(OC)cc1)Cc1cc2cccc(C)c2[nH]c1=O | inactive: -1.83% | 
25 | CC(NC(=O)c1cc2ccccc2oc1=O)c1ccc(O)cc1 (configuration not stated) | inconclusive: -0.582% | 
26 | Cc1cccc(C)c1NC(=O)Cn1nc(-c2ccc(Cl)s2)ccc1=O | inactive: 0.465% | 
27 | Cc1cccc(NC(=O)CSc2nnc(-c3ccco3)n2CC2CCCO2)n1 (configuration not stated) | inactive: -1.84% | 
28 | CCSc1nc2ccccc2n1Cc1cccc([N+](=O)[O-])c1 | inconclusive: -15.5% | 
29 | O=C(Cc1ccc(S(=O)(=O)N2CCOCC2)s1)NNC(=O)c1ccccc1Cl |  | inconclusive: 16.4 µM [falling, partial curve, poor fit]
30 | Cn1c(=O)c2c(nc(NCC3CCCO3)n2Cc2ccccc2)n(C)c1=O (configuration not stated) | inactive: 13.6% | 
31 | Cc1ccc(CSCc2ccc(C(=O)NCCc3ccc(Cl)cc3)o2)cc1 | inactive: -5.75% | 
32 | COc1ccccc1N1CCN(CC(=O)Nc2ccc3c(c2)OCCO3)CC1 | inconclusive: -29.4% | 
33 | OCC1OC(Oc2c[nH]c3ccccc23)C(O)C(O)C1O (configuration not stated) | inactive: 3.28% | 
34 | Cc1nc2[nH]c(=S)[nH]c2cc1Br | inactive: 8.6% | 
35 | O=C(CCCN1C(=O)/C(=C\c2cccs2)SC1=S)NNC(=O)c1cccnc1 |  | inconclusive: 10 µM [falling, partial curve]
36 | COc1ccc(OC)c(S(=O)(=O)NCC(c2ccc3c(c2)OCO3)N2CCOCC2)c1 (configuration not stated) | inconclusive: -10.2% | 
37 | O=C(N/N=C/c1ccc(C(F)(F)F)cc1)c1ccc(O)cc1 |  | inconclusive: 12.6 µM [falling, partial curve]
38 | CCOC(=O)c1ccc(NC(=O)CNNC(=O)COc2ccccc2C)cc1 | inconclusive: -16% | 
39 | Cc1cc(C)c2c(CC(=O)Nc3ccc(Cl)cn3)coc2c1 | inconclusive: 0.901% | 
40 | O=C(CC(c1ccccc1)c1ccccc1O)NCc1ccccc1Cl (configuration not stated) | inconclusive: 5.25% | 
41 | COc1ccc(NC(=O)C/C(C)=N/NC(=O)c2cnccn2)c(OC)c1 |  | inconclusive: 8.91 µM [falling, partial curve]
42 | O=C(O)C1CCCN1c1nc(-c2ccc(Cl)c(Cl)c2)cc(C(F)(F)F)n1 (configuration not stated) | inconclusive: -1.84% | 

Shown as comma-separated lines: entries from further up
Row,SMILES,"activity change, negative = inhibition",Potency
34,Cc1nc2[nH]c(=S)[nH]c2cc1Br,inactive: 8.6%,
35,O=C(CCCN1C(=O)/C(=C\c2cccs2)SC1=S)NNC(=O)c1cccnc1,,"inconclusive: 10 µM [falling, partial curve]"

(cont.)

Row | SMILES | activity change, negative = inhibition | Potency
43 | O=C(NCCNc1cc(Cl)ccc1[N+](=O)[O-])c1ccco1 | inconclusive: 1.79% | 
44 | Cc1c(C)n(C)c2ccc(C(=O)Nc3cccc4ccccc34)cc12 |  | inconclusive: 2 µM [falling, full curve, poor fit]
45 | CCOc1ccc2nc(N3CCCC(C(=O)NCCCN4C(C)CCCC4C)C3)sc2c1 (configuration not stated) | inactive: -14.7% | 
46 | CCN(c1ccc(NC(=O)CSc2nnc3nc(C)cc(C)n23)cc1)C(C)C | inconclusive: 14.1% | 
47 | CC(C)c1nc(NCc2ccccc2)c(C#N)c2c1CCCC2 | inactive: 21.6% | 
48 | COc1cc(C(=O)OCC#N)ccc1OCc1c(C)noc1C |  | inconclusive: 35.5 µM [falling, single point]
49 | CC(NC(=O)Cn1ncc(Cl)c(Cl)c1=O)C12CC3CC(CC(C3)C1)C2 (configuration not stated) | inconclusive: 18.1% | 
50 | Cc1csc(NC(=O)CSc2ccccc2F)n1 | inconclusive: -27.9% | 
51 | CCCc1ccc(C(C)NC(=O)c2cnccn2)cc1 (configuration not stated) | inactive: -0.135% | 
52 | COc1ccccc1NS(=O)(=O)c1cccc2nsnc12 |  | inconclusive: 7.94 µM [falling, partial curve, poor fit]
53 | CCOC(=O)c1c(C)[nH]c(C)c1C(=O)COC(=O)c1ccc(S(=O)(=O)C(F)F)cc1 | inconclusive: 2.55% | 
54 | O=C(CN1C2=NCCN2c2ccccc21)C12CC3CC(CC(C3)C1)C2 | inconclusive: -1.67% | 
55 | Nc1c(Cl)cc(Cl)cc1C(=O)OCC(=O)N1CCCC1 |  | inconclusive: 29.1 µM [falling, single point]
56 | COC(=O)c1cc(S(=O)(=O)N2CCCCC2)c[nH]1 | inconclusive: 4.74% | 
57 | COc1ccc2c(Cl)c(C(=O)NN)sc2c1 | inactive: -9.05% | 
58 | CCOC(=O)c1c(NC(=O)/C=C/c2ccc3c(c2)OCO3)sc(C)c1CC | inactive: -0.0565% | 
59 | CCN(CC)CCCC(C)NC(=O)c1cc(=O)c2ccccc2o1 (configuration not stated) | inactive: -0.104% | 
60 | O=C1c2ccccc2C(=O)N1CCCCCCc1ccccc1 | inconclusive: 18.3% | 
61 | CCc1nc2ccccc2c(C(=O)OCC(=O)Nc2cccc(S(=O)(=O)N3CCOCC3)c2)c1C | inconclusive: -7.73% | 
62 | COc1ccccc1C(=O)NCCn1cc(SCC(=O)Nc2cc(C)on2)c2ccccc21 | inconclusive: 12.4% | 
63 | Nc1cccc2nc3ccccc3cc12 |  | inconclusive: 18.4 µM [rising, partial curve]

In a second layout: results already given
Cc1csc(NC(=O)CSc2ccccc2F)n1
  activity change, negative = inhibition: inconclusive: -27.9%
Nc1cccc2nc3ccccc3cc12
  Potency: inconclusive: 18.4 µM [rising, partial curve]

More structures

Row | SMILES | activity change, negative = inhibition | Potency
64 | C/C(=N/O)c1cc(C(C)(C)C)c(O)c(C(C)(C)C)c1 |  | inconclusive: 2.31 µM [falling, full curve, poor fit]
65 | CC(C)OC(=O)c1cccnc1SCc1cc(=O)n2ccccc2n1 |  | inconclusive: 25.1 µM [falling, single point]
66 | COc1ccc(Cc2nnc(NS(=O)(=O)c3ccc(NC(C)=O)cc3)s2)cc1 | inconclusive: -9.11% | 
67 | CC1(C)C=Cc2c(ccc3c2OC[C@H](c2ccc(O)cc2O)C3)O1 | inconclusive: 17.1% | 
68 | O=C(COC(=O)c1ccc(-c2nnc(-c3ccccc3)o2)cc1)c1ccccc1 | inconclusive: -1.29% | 
69 | COc1ccc(S(=O)(=O)N2CCCCCC2)cc1C(=O)N(C)CC(=O)Nc1ccccc1Br | inactive: -4.81% | 
70 | O=S(=O)(c1ccc(Cl)c(C(F)(F)F)c1)N1CCN(CC(O)COCC2CCCO2)CC1 (configuration not stated) | inactive: -0.373% | 
71 | CCOc1ccc(S(=O)(=O)N2CCC(C(=O)N3CCN(c4ccccc4)CC3)CC2)cc1 | inconclusive: -4.19% | 
72 | Nc1nnnn1CC(=O)N/N=C/c1ccccn1 | inactive: 6.39% | 
73 | Cc1ccc(CNC(=O)c2cc3c(C)nc4ccccc4c3o2)cc1 | inconclusive: -0.801% | 
74 | Clc1cc(Cl)cc(Nc2ncnc(-n3cccc3)n2)c1 |  | inconclusive: 1.12 µM [rising, partial curve, poor fit]
75 | COc1ccc(CNc2oc(-c3cccc4ccccc34)nc2P(=O)(OC)OC)cc1 |  | inconclusive: 11.2 µM [falling, partial curve]
76 | CC(C)SCCCCOc1ccc2ccccc2c1 | inconclusive: 26.4% | 
77 | Cc1cc(C)c(S(=O)(=O)N2CCN=C2c2ccccc2)cc1C | inconclusive: 11.8% | 
78 | CC(Sc1cccc[n+]1[O-])C(=O)Nc1ccc(Oc2ccccc2)cc1 (configuration not stated) | inconclusive: 0.114% | 
79 | CC12c3ccccc3C(c3ccccc31)C1C(=O)N(c3ccncc3)C(=O)C12 (configuration not stated) | inconclusive: 9.2% | 
80 | O=C(NC(=S)Nc1cc([N+](=O)[O-])ccc1O)c1cccnc1 |  | inconclusive: 15.8 µM [falling, single point]
81 | Cc1c(/C=N/NC(=O)C(NC(=O)c2ccc3c(c2)OCO3)C(C)C)c2ccccc2n1C (configuration not stated) | inconclusive: 0.0655% | 
82 | S=C(Nc1ccc2nc(-c3ccccn3)c(-c3ccccn3)nc2c1)N1CCOCC1 | inconclusive: 14.2% | 
